Measured values published in PubChem BioAssay AID651768 (National Center for Advancing Translational Sciences (NCATS), 2012).
The whole screen tested about 360,000 compounds, of which about 1,700 (0.47%) were called active. The shares of active, inactive and inconclusive entries below differ from those in the screen. The call rests on the fitted dose curve; in most records, active means well fitted inhibition curve with a large enough effect; inconclusive means small, poorly fitted or top-dose-only effect; inactive means no such curve, though single readings can be large or run the other way. A potency beside an inconclusive call is a rough fit, not a confirmed value.
Further: nearly all actives have a fitted effect of over 55% in size.
On the % scale 0 is the no-effect control and ±100 the full control effect; potency means the concentration at half of the fitted maximal effect.

Sequences of proteins named here, by UniProt entry; tags and fusion partners are left off.
UniProt Q14191, whole entry, looked up: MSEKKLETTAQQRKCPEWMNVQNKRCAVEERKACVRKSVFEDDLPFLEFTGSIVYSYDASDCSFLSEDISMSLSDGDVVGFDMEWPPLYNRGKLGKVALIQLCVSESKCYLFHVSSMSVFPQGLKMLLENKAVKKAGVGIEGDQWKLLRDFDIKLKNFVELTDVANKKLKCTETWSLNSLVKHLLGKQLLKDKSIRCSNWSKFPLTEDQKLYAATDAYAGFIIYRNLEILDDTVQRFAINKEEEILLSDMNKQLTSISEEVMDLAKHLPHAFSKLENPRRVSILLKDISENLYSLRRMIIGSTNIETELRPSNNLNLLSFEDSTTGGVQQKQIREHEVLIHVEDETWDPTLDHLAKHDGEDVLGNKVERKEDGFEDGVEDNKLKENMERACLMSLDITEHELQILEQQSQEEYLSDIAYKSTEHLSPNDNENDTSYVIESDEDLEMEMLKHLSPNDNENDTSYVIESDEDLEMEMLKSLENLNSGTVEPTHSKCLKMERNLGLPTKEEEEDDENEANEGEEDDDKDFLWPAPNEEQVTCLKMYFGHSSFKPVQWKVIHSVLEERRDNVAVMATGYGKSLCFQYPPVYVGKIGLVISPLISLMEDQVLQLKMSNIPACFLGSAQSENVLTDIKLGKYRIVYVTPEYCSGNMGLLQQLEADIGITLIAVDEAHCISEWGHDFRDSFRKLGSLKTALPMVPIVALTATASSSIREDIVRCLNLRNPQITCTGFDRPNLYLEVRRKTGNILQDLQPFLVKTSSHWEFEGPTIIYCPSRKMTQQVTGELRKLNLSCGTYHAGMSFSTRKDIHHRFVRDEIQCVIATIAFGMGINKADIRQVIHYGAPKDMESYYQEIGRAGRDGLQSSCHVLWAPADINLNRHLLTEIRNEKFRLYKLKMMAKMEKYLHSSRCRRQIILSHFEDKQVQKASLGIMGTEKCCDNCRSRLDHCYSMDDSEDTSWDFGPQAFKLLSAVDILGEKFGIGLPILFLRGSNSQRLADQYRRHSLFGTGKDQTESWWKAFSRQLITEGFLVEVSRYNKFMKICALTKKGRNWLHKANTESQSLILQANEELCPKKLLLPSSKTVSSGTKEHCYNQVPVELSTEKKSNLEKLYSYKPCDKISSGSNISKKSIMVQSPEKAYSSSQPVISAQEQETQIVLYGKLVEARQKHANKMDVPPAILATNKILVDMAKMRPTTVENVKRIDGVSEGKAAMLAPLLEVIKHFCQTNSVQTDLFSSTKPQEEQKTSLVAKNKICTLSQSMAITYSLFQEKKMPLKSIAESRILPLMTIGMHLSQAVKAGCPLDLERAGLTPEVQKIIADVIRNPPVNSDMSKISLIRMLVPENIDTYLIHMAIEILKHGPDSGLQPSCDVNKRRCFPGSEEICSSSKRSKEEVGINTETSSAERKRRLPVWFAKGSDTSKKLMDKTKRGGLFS

These compounds were tested against Bifunctional 3'-5' exonuclease/ATP-dependent helicase WRN (Homo sapiens) (UniProt Q14191) (assay: qHTS for Inhibitors of WRN Helicase). Settings: WRN helicase unwinding, fluorescent forked duplex, kinetic; activity change, negative = inhibition: at 114 µM (top of the series) unless noted.
In short: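 Enzyme (20 nM final) and test compound sit together 15 min at room temperature before substrate addition. Substrate is a single-forked duplex oligonucleotide (100 nM) labelled with fluorophore and quencher, with 2 mM ATP; helicase unwinding raises red fluorescence, read kinetically.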
With `COc1ccc(OC)c(/C=C2\N=C(c3ccccc3)OC2=O)c1` the Potency was inconclusive: 22.4 µM [inhibitor, single point].
With `Cc1cc(NCCCCCCCNc2cc(C)nc3cc([N+](=O)[O-])ccc23)c2ccc([N+](=O)[O-])cc2n1` the Potency was inconclusive: 15.8 µM [inhibitor, full curve].
For `CCOc1ccccc1NC(=O)C(=O)/C=C(\O)c1cc(OC)ccc1OC`, the Potency was “inactive”.
In the case of `CSc1ccc(NC(=O)CSc2nc3[nH]c(=O)cc(O)c3s2)cc1`, the Potency is reported as inconclusive: 79.4 µM [inhibitor, partial curve].
With `COc1cc2[nH]c(=S)nc(NC3CCCCCC3)c2cc1OC` the Potency was inconclusive: 15.8 µM [inhibitor, full curve].
`O=C(O)C1=NN(c2cc(Cl)c(S(=O)(=O)O)cc2Cl)C(=O)C1` was tested, and the Potency was inconclusive: 44.7 µM [inhibitor, partial curve].
In the case of `CN1CCN(C(=O)CSc2nc(-c3cccs3)ccc2C#N)CC1`, the activity change, negative = inhibition is reported as inconclusive: -38.7% [inhibitor] [at 57.1 µM].
`O=C1NC(c2ccccc2Cl)=N/C1=C/c1ccco1` was tested, and the activity change, negative = inhibition was inactive: -7.75% [at 11.6 µM].
For `COc1cccc(Cl)c1NC(=O)N1CCN(c2cc(C)nc3ccccc23)CC1`, the Potency was “inactive”.
For `C=C(C)C(=O)Nc1cccc(C2=NOC3(C2)C[C@@H](C(N)=O)N(C(=O)c2ccc(Cl)cc2)C3)c1` (stereo partly specified), the Potency was active: 44.7 µM.
For `COc1ccc(-c2ccc(/C=C(\NC(=O)c3ccccc3)C(=O)N3CCOCC3)o2)cc1`, the Potency was inconclusive: 39.8 µM [inhibitor, single point].
With `[N-]=[N+]=NC[C@H](Cc1ccccc1)N1CCN(Cc2ccccc2)CCC1=O` the Potency was inconclusive: 2.82 µM [inhibitor, partial curve, poor fit].
`COCCN(Cc1cc2cc(C)ccc2n2nnnc12)C(=S)Nc1cccc(C)c1` was tested, and the Potency was “inactive”.
In the case of `CCC1Sc2ccc(S(=O)(=O)N3CCN(c4ccccc4)CC3)cc2NC1=O` (stereo unspecified), the Potency is reported as “inactive”.
For `CC(C)CC1=NN2C(=N)/C(=C\c3coc4ccccc4c3=O)C(=O)N=C2S1`, the Potency was inconclusive: 28.2 µM [inhibitor, single point].
In the case of `O=C(N/N=C\c1cn[nH]c1-c1ccccc1)c1cccs1`, the Potency is reported as inconclusive: 2.82 µM [inhibitor, partial curve, poor fit].
For `O=C1CCCN1C(=O)CSc1ncnc2sccc12`, the Potency was inconclusive: 50.1 µM [inhibitor, partial curve].
`CCCCC1=CC2=C(c3ccco3)C(=O)C(C)(OC(=O)c3ccc(OC)cc3)C(=O)C2=CN1Cc1ccco1` (stereo unspecified) was tested, and the Potency was “inactive”.
With `CCN(c1ccccc1)S(=O)(=O)c1ccc(Cl)c(C(=O)N(CC2CCCO2)C2CCS(=O)(=O)C2)c1` (stereo unspecified) the Potency was “inactive”.
With `Cn1ccsc1=NC(=O)c1ccc(S(C)(=O)=O)c([N+](=O)[O-])c1` the Potency was inconclusive: 89.1 µM [inhibitor, single point].
In the case of `O=C(COC(=O)c1c2c(nc3ccccc13)/C(=C\c1ccco1)CC2)NC1CCCC1`, the Potency is reported as active: 44.7 µM.
`COc1ccc(OC)c2cc3ccccc3cc12` was tested, and the Potency was inconclusive: 22.4 µM [inhibitor, partial curve].
`Cc1c(C(=O)Oc2cccc3cccnc23)cccc1[N+](=O)[O-]` was tested, and the Potency was “inactive”.
In the case of `CN1CCc2c(sc3c2C(=O)NC(c2cn(Cc4ccccc4)c4ccccc24)N3)C1` (stereo unspecified), the Potency is reported as inconclusive: 79.4 µM [inhibitor, single point].
With `C=C(C)C(=O)Nc1cccc(C2=NOC3(C2)C[C@@H](C(N)=O)N(C(=O)/C=C/CC)C3)c1` (stereo partly specified) the Potency was inconclusive: 28.2 µM [inhibitor, single point].
`O=C(CCCn1nnnc1CN1CCOCC1)N1CCC(c2ccc(F)cc2)C1` (stereo unspecified) was tested, and the Potency was inconclusive: 100 µM [inhibitor, partial curve].
For `Cc1cccc(N=C2NC(=O)/C(=C/C=C/c3ccco3)S2)c1`, the Potency was inconclusive: 16.8 µM [inhibitor, partial curve].
For `Nc1c(C(=O)NCc2ccco2)c2nc3ccccc3nc2n1CCc1ccc(F)cc1`, the Potency was inconclusive: 39.8 µM [inhibitor, partial curve].
With `Cc1ccc(S(=O)(=O)N2CCOCC2)cc1C(=O)OC(C)C(=O)c1ccccc1` (stereo unspecified) the Potency was “inactive”.
With `O=S(=O)(/C=C/C=C/S(=O)(=O)c1ccccc1)c1ccccc1` the Potency was inconclusive: 12.6 µM [inhibitor, full curve, poor fit].
With `NNC(=O)c1oc2ccccc2c1-n1cccc1` the Potency was inconclusive: 70.8 µM [inhibitor, single point].
`O=C1C=C(Nc2ccc(F)cc2)c2ccccc2C1=O` was tested, and the Potency was “inactive”.
For `CC(C)c1nc2sc3c(SCC(=O)NCc4ccco4)ncnc3c2c2c1CCC2`, the Potency was inconclusive: 39.8 µM [inhibitor, full curve].
With `CC1(C)CC(=O)C(C(C2=C(O)CC(C)(C)CC2=O)c2ccc(Br)s2)C(=O)C1` (stereo unspecified) the Potency was active: 22.4 µM.
`COc1ccc2c(CC(=O)OCC(=O)Nc3cccc(C)c3)coc2c1` was tested, and the Potency was inconclusive: 50.1 µM [inhibitor, partial curve].
In the case of `CN(C(=O)CCc1ccccc1F)C1CCCN(Cc2ccccc2F)C1` (stereo unspecified), the Potency is reported as “inactive”.
In the case of `Cc1ccc2cc3cc(C(=O)NCc4ccco4)oc3nc2c1`, the Potency is reported as inconclusive: 50.1 µM [inhibitor, partial curve].
In the case of `CCOc1ccc(S(=O)(=O)NC(C)C(=O)NCc2ccccn2)cc1` (stereo unspecified), the Potency is reported as inconclusive: 14.1 µM [inhibitor, partial curve].
`Cc1c(C(=O)O)sc2nc(CSc3nnc(-c4ccc(F)cc4)n3C)[nH]c(=O)c12` was tested, and the Potency was inconclusive: 28.2 µM [inhibitor, full curve, poor fit].
For `CC(C)(C)NC(=O)Nc1ccc(Cn2cc(C(F)(F)F)ccc2=O)cc1`, the Potency was “inactive”.
With `CCN(CC)S(=O)(=O)c1cc(C(=O)Nc2ccccc2[N+](=O)[O-])ccc1Cl` the Potency was inconclusive: 12.6 µM [inhibitor, single point].
For `CC1CCCC(C)N1C(=O)COC(=O)/C=C/c1ccc(Br)o1` (stereo unspecified), the Potency was inconclusive: 56.2 µM [inhibitor, partial curve].
For `COC(C(=O)C(O)C(C)O)C1Cc2cc3cc(OC4CC(OC5CC(O)C(O)C(C)O5)C(O)C(C)O4)c(C)c(O)c3c(O)c2C(=O)C1OC1CC(OC2CC(OC3CC(O)C(OC)C(C)O3)C(O)C(C)O2)C(O)C(C)O1` (stereo unspecified), the Potency was inconclusive: 3.36 µM [inhibitor, partial curve].
For `O=C(Nc1ccc(S(=O)(=O)Nc2nccs2)cc1)c1nn(-c2ccc(F)cc2)ccc1=O`, the Potency was active: 50.1 µM.
`O=C(CN1CCN(C/C=C/c2ccccc2)CC1)NCc1ccc(Cl)cc1` was tested, and the Potency was “inactive”.
With `COCCC(=O)N1CCC(Oc2ccc(C(=O)N3C[C@@H](C)O[C@@H](C)C3)cc2)CC1` the Potency was inconclusive: 70.8 µM [inhibitor, single point].
In the case of `CNC(=S)N(Cc1cccs1)Cc1cc2cc(OC)ccc2[nH]c1=O`, the Potency is reported as inconclusive: 79.4 µM [inhibitor, single point].
In the case of `C=CC(=O)N1C/C(=C/c2ccccc2)C(=O)/C(=C\c2ccccc2)C1`, the Potency is reported as inconclusive: 17.8 µM [inhibitor, full curve].
With `O=c1cc(O)c2sc(Nc3ccc(Cl)c(F)c3)nc2[nH]1` the Potency was inconclusive: 50.1 µM [inhibitor, partial curve].
With `COc1ccccc1N(CC(=O)NCc1ccco1)S(=O)(=O)c1ccc(C)cc1` the Potency was active: 35.5 µM.
`O=C(COc1ccc(Cl)cc1)Nc1nnc(C2=COCCO2)o1` was tested, and the Potency was inconclusive: 79.4 µM [inhibitor, single point].
In the case of `Nc1ccc(C(=O)N/N=C\c2ccc(OC(=O)c3ccccc3Cl)cc2)cc1`, the Potency is reported as “inactive”.
With `CCN(CCS(=O)(=O)c1ccc(Cl)cc1)C(=O)Nc1ccccc1` the Potency was inconclusive: 8.91 µM [inhibitor, full curve, poor fit].
With `CC(=O)c1nc(N2C(=O)CC(Cc3ccc(C)cc3)C2=O)sc1C` (stereo unspecified) the Potency was inconclusive: 22.4 µM [inhibitor, single point].
In the case of `COc1ccc(NC(=O)C2CCN(S(=O)(=O)c3ccc(N4CCCC4=O)cc3)CC2)cc1OC`, the Potency is reported as “inactive”.
In the case of `CCCCC(=O)Nc1ccc(S(=O)(=O)N2CCCCC2c2cccnc2)cc1` (stereo unspecified), the Potency is reported as inconclusive: 79.4 µM [inhibitor, single point].
In the case of `O=C(OCC(=O)N1CCN(C(=O)c2ccco2)CC1)c1cc(-c2ccc(Cl)c(Cl)c2Cl)nc2ccccc12`, the Potency is reported as inconclusive: 22.4 µM [inhibitor, partial curve].
`Cn1c(CC2Sc3ccccc3NC2=O)nnc1SCC(=O)c1ccc(Cl)cc1` (stereo unspecified) was tested, and the Potency was inconclusive: 10 µM [inhibitor, full curve].
`N=C1C(c2nc(-c3cccc([N+](=O)[O-])c3)cs2)=C(O)CN1NC(=O)c1ccco1` was tested, and the Potency was inconclusive: 50.1 µM [inhibitor, partial curve].
In the case of `CCCNc1c(F)c(F)c2c(C)c3ccccc3nc2c1F`, the Potency is reported as inconclusive: 50.1 µM [inhibitor, partial curve].
`O=c1c2ccccc2ncn1-c1ccc([N+](=O)[O-])cc1Cl` was tested, and the Potency was inconclusive: 79.4 µM [inhibitor, single point].
In the case of `Cn1ccsc1=NC(=O)c1ccc([N+](=O)[O-])o1`, the Potency is reported as inconclusive: 44.7 µM [inhibitor, partial curve].
In the case of `O=C(CSc1nccc(=O)[nH]1)c1c[nH]c2ccccc12`, the Potency is reported as “inactive”.
In the case of `COc1ccccc1-c1cc(NC=O)c2ncc(-c3ccc(S(C)(=O)=O)cc3)n2c1`, the Potency is reported as inconclusive: 89.1 µM [inhibitor, single point].
In the case of `CSc1ccc(CNC(=O)C(C)n2nc(C)c3c(C)n(-c4ccccc4)nc3c2=O)cc1` (stereo unspecified), the Potency is reported as “inactive”.
In the case of `CN(C)CC(CCC(CN(C)C)C(=O)c1ccccc1)C(=O)c1ccccc1` (stereo unspecified), the Potency is reported as inconclusive: 20 µM [inhibitor, full curve, poor fit].
